A: 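Whole-parasite assay of Trypanosoma brucei over 72 hours; the read-out is not stated. Tested at 30 µM. The record gives no direction; compounds that gave an IC50 in retests scored well above the rest, so higher reads as stronger inhibition. Values scatter widely below zero; nearly all retest evidence comes from the higher of the two concentrations used. Size under these conditions: about 64,000 compounds, about 940 of them at 50% or above in at least one test.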
B: 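Assay of Toxoplasma gondii numbers, read through their beta-galactosidase reporter with a colour substrate. Tested at 10 µM. Higher reads as fewer parasites (inferred from which compounds were picked for retests). Of about 67,000 compounds tested this way, about 260 (0.38%) reached 50% or more in at least one test.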

Results are given as percent effect. The controls that fix the scale are not given in the record; negative values are as filed. This is an unselected part of the compounds tested.

For CCN1CC2(CCC1=O)CCN(c1ccc(C(C)=O)cn1)CC2 the result was A: -30.53%; B: -3.448%. Result for Cc1cnn(C2CCCN(C(=O)c3ccc(N4CCCC4)nn3)C2)c1 (stereo not drawn) was A: -13.4%; B: 7.262%. Cc1cscc1-c1nc(C2CCOC2)no1 (stereo not drawn) gave A: -29.53%; B: -16.85%. O=C(CCC1CCCCO1)NCc1cnn(-c2ccc(F)cc2F)c1 (stereo not drawn) gave A: -43.46%; B: 5.072%.

For CC(=O)N1CCC(C)(c2cc[nH]n2)CC1 the result was B: 0.9044%. COc1ccccc1OCC(=O)n1nc(C)c(C)c1C read A: -9.693%; B: -15.69%. Cn1cc2ncn(CCC3CCN(Cc4ccccc4)C3)c(=O)c2n1 (stereo not drawn) gave A: 15.9%; B: -5.632%. Result for O=C(CCn1cncn1)NCC(c1ccco1)N1CCCC1 (stereo not drawn) was B: -10.08%.

Cn1cccc1C(=O)N1CCCC1c1ccc(CN2CCOCC2)cn1 (stereo not drawn) gave A: 0.3349%; B: -20.23%. Result for COC(=O)C(CNC(=O)Nc1cn[nH]c1)Cc1cccc(C)c1 (stereo not drawn) was A: -4.092%; B: 7.515%. N#CCSCCCN1CCC(C(=O)N2CCCCCC2)CC1 gave A: -17.93%; B: -5.935%. Result for O=C(O)C(F)(F)F.O=C(O)C(F)(F)F.[H][C@@]12COC[C@]1(COCc1ccncc1)CN(c1cc(OC)ncn1)C2 was A: -12.8%; B: -9.824%.

CCn1nc(C)c(CCNC(=O)C2CCCN(C3CCCC3)C2)c1C (stereo not drawn) gave A: -62.05%; B: 26.41%. With CN(CC(=O)NCC(F)(F)F)C(=O)c1ccc(=O)[nH]c1 the screen gave A: -20.7%; B: 0.4953%. Cc1cc(-c2cnc(C)nc2CN(C)C(=O)c2ccccn2)on1 gave A: -6.314%; B: 7.832%. For O=C(NCCCNc1ccccn1)NCC1CCS(=O)(=O)C1 (stereo not drawn) the result was A: 12.52%; B: 5.133%.

For Cc1cc(C)c2cc(CNCCCN3CCOCC3)c(=O)[nH]c2c1 the result was A: 19.21%; B: -8.391%. Cc1nc2n(n1)CC(NCC(=O)NCCCOC(C)C)CC2 (stereo not drawn) read A: -46.8%; B: 7.469%. Result for NC(=O)CCCNC(=O)Cc1cccc(I)c1 was A: 5.732%; B: 1.765%. Result for CC1(C)CN(Cc2cc(C3CCCCC3)no2)CC[C@]1(C)O was A: -23.4%; B: -6.497%.

For CCOC(=O)C1CCN(C(=O)CN2CCCC2c2ccccc2C)CC1 (stereo not drawn) the result was A: -20.34%; B: -0.9451%. Result for CCN(Cc1cccc2c1OCO2)C(=O)Nc1cn[nH]c1 was B: -5.91%. For COCC(=O)N[C@H]1C[C@@H](Cc2cc(CN3CCCCC3)on2)C1(C)C the result was A: -29.14%; B: 2.094%. C[C@@H]1CN(C(=O)Cn2ccc3ncccc3c2=O)C[C@H](C)O1 read A: -30.78%; B: 18.84%.

For [H][C@]12CC[C@](O)(CC1)C(COC)N2S(=O)(=O)c1cn(C)cn1 (stereo partly drawn) the result was A: -23.23%; B: -5.501%. Result for CC1c2cccn2CCN1C(=O)CCCc1nc(-c2ccco2)no1 (stereo not drawn) was A: -8.889%; B: 9.596%. For COc1cc(F)c(C(=O)NCc2cc(C)on2)c(F)c1 the result was A: 5.371%; B: 23.4%. Cc1ccc(-c2nc(CN3CCn4c(C)nnc4C3)co2)cc1 gave A: -8.075%; B: -3.487%.

Cc1nc(CN2Cc3nccn3CC(CN3CCCC3)C2)cs1.O=C(O)C(F)(F)F.O=C(O)C(F)(F)F (stereo not drawn) read A: -18.88%; B: 18.32%. With Cc1nc(-c2ccccc2)cc2nn(CC(N)=O)c(=O)n12 the screen gave A: -35.76%; B: 8.156%. For CC(C)(NC(=O)Cc1ccccc1F)C(C)(C)C(=O)O the result was A: -7.81%; B: 4.931%. Cn1ncc(C(=O)N2CCN(C(=O)c3ccco3)CC2)c1Cl read A: 0.9358%; B: 75.62%.

With Cc1ncccc1CNC1CCCN(Cc2noc(C3CC3)n2)C1 (stereo not drawn) the screen gave A: -4.437%; B: -16.24%. CC(Cn1cccn1)NC(=O)CCC(=O)c1cccs1 (stereo not drawn) gave A: 0.6805%; B: -2.768%. COc1cccc2c3c(c(=O)[nH]c12)CCC(C)(C)O3 gave A: -19.91%; B: -0.76%. CN(C)C(=O)c1cccnc1-c1ccc2c(c1)OCCO2 read A: 0.2434%; B: 2.041%.

Cc1cc(CN2CCN(C(=O)NC(C)Cn3cccn3)CC2)no1 (stereo not drawn) read A: 7.337%; B: 12.35%. For COc1cc(C(=O)NS(=O)(=O)c2cncc(Br)c2)cc(Cl)c1OC the result was A: -29.07%; B: 0.5364%. With CN(C)Cc1nn(C)c2c1CCN(C(=O)CC1CC1)C2.O=C(O)C(F)(F)F the screen gave A: -47.43%; B: 3.398%.

For reference, 3 entries once more:

Compound,A,B
CCn1nc(C)c(CCNC(=O)C2CCCN(C3CCCC3)C2)c1C (stereo not drawn),-62.05,26.41
COc1cc(C(=O)NS(=O)(=O)c2cncc(Br)c2)cc(Cl)c1OC,-29.07,0.5364
O=C(NCCCNc1ccccn1)NCC1CCS(=O)(=O)C1 (stereo not drawn),12.52,5.133

Data taken from ChEMBL document CHEMBL3988442, “University of Dundee, Small-Polar-MMV Screening Library” (2021).